The other results are listed elsewhere or left out.
Experiments:
Test in all cases: glycan array binding signal (z-score within array); higher = stronger binding
Conditions in all cases: glycan notation: IUPAC condensed, linker removed
[1] = molecular target: Gal6S(b1-4)Glc
How it was run: (§1)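 Negative Z-scores can be read as non-binding. The Z-score is calculated within each array and then averaged across arrays of one protein sequence at different concentrations or buffers and across linkers. Arrays, 3228 in all, were curated from the Consortium for Functional Glycomics database and kept only where the protein sequence was available.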

[2] = molecular target: Gal6S(b1-4)Glc6S
How it was run: as §1

[3] = molecular target: Gal6S(b1-4)GlcNAc
How it was run: as §1

[4] = molecular target: Gal6S(b1-4)GlcNAc6S
How it was run: as §1

[5] = molecular target: GalNAc(a1-3)Gal
How it was run: as §1

[6] = molecular target: GalNAc(a1-3)GalNAc
How it was run: as §1

[7] = molecular target: GalNAc(a1-3)GalNAc(b1-3)Gal(a1-4)Gal(b1-4)Glc
How it was run: as §1

[8] = molecular target: GalNAc(a1-3)GalNAc(b1-3)Gal(a1-4)Gal(b1-4)GlcNAc
How it was run: as §1

[9] = molecular target: GalNAc(b1-3)Gal
How it was run: as §1

[10] = molecular target: GalNAc(b1-3)Gal(a1-4)Gal(b1-4)GlcNAc
How it was run: as §1

[11] = molecular target: GalNAc(b1-3)Gal(a1-4)Gal(b1-4)GlcNAc(b1-3)Gal(b1-4)Glc
How it was run: as §1

[12] = molecular target: GalNAc(b1-3)Gal(a1-6)Gal(b1-4)Glc
How it was run: as §1

[13] = molecular target: GalNAc(b1-3)GalNAc
How it was run: as §1

[14] = molecular target: GalNAc(b1-3)GlcNAc
How it was run: as §1

[15] = molecular target: GalNAc(b1-4)Gal(b1-4)Glc
How it was run: as §1

[16] = molecular target: GalNAc(b1-4)GlcNAc
How it was run: as §1

[17] = molecular target: GalNAc(b1-4)GlcNAc(b1-2)Man
How it was run: as §1

[18] = molecular target: GalNAc(b1-4)GlcNAc(b1-2)Man(a1-3)[GalNAc(b1-4)GlcNAc(b1-2)Man(a1-6)]Man(b1-4)GlcNAc(b1-4)GlcNAc
How it was run: as §1

[19] = molecular target: GalNAc(b1-4)GlcNAc(b1-3)GalNAc(b1-4)GlcNAc
How it was run: as §1

[20] = molecular target: GalNAc(b1-4)GlcNAc6S
How it was run: as §1

[21] = molecular target: GalNAc(b1-6)GalNAc
How it was run: as §1

[22] = molecular target: GalNAc3S(b1-4)GlcNAc
How it was run: as §1

[23] = molecular target: GalNAc3S(b1-4)GlcNAc3S
How it was run: as §1

[24] = molecular target: GalNAc3S(b1-4)[Fuc(a1-3)]GlcNAc
How it was run: as §1

[25] = molecular target: GalNAc4S6S(b1-4)GlcNAc
How it was run: as §1

[26] = molecular target: GalNAc6S(b1-4)GlcNAc
How it was run: as §1

[27] = molecular target: Glc(a1-4)Glc
How it was run: as §1

[28] = molecular target: Glc(a1-4)Glc(a1-4)Glc(a1-4)Glc
How it was run: as §1

[29] = molecular target: Glc(a1-6)Glc(a1-6)Glc
How it was run: as §1

[30] = molecular target: Glc(a1-6)Glc(a1-6)Glc(a1-6)Glc
How it was run: as §1

[31] = molecular target: Glc(b1-4)Glc
How it was run: as §1

[32] = molecular target: Glc(b1-6)Glc
How it was run: as §1

[33] = molecular target: GlcA(b1-3)Gal
How it was run: as §1

[34] = molecular target: GlcA(b1-3)GlcNAc
How it was run: as §1

[35] = molecular target: GlcA(b1-6)Gal
How it was run: as §1

[36] = molecular target: GlcA3S(b1-3)Gal(b1-4)GlcNAc(b1-2)Man
How it was run: as §1

[37] = molecular target: GlcA3S(b1-3)Gal(b1-4)GlcNAc(b1-3)Gal(b1-4)Glc
How it was run: as §1

[38] = molecular target: GlcNAc(a1-3)Gal(b1-4)GlcNAc
How it was run: as §1

[39] = molecular target: GlcNAc(a1-4)Gal(b1-3)GlcNAc
How it was run: as §1

[40] = molecular target: GlcNAc(a1-4)Gal(b1-4)GalNAc
How it was run: as §1

[41] = molecular target: GlcNAc(a1-4)Gal(b1-4)GlcNAc
How it was run: as §1

[42] = molecular target: GlcNAc(a1-4)Gal(b1-4)GlcNAc(b1-3)Gal(b1-4)Glc
How it was run: as §1

[43] = molecular target: GlcNAc(a1-4)Gal(b1-4)GlcNAc(b1-3)Gal(b1-4)GlcNAc
How it was run: as §1

[44] = molecular target: GlcNAc(a1-4)Gal(b1-4)GlcNAc(b1-3)Gal(b1-4)GlcNAc(b1-3)Gal(b1-4)GlcNAc
How it was run: as §1

[45] = molecular target: GlcNAc(a1-4)Gal(b1-4)GlcNAc(b1-3)Gal(b1-4)[Fuc(a1-3)]GlcNAc(b1-3)Gal(b1-4)[Fuc(a1-3)]GlcNAc
How it was run: as §1

B1: OS9-MRH (Homo sapiens), Q13438 (protein)
chain: IPELLSPMRDAPCLLKTKDWWTYEFCYGRHIQQYHMEDSEIKGEVLYLGYYQSAFDWDDETAKASKQHRLKRYHSQTYGNGSKCDLNGRPREAEVRFLCDEGAGISGDYIDRVDEPLSCSYVLTIRTPRLCPHPLLRPPPSAAPQAI
- glycan array binding signal (z-score) [1]: -0.643
- glycan array binding signal (z-score) [2]: -1.06
- glycan array binding signal (z-score) [3]: -0.312
- glycan array binding signal (z-score) [4]: -1.06
- glycan array binding signal (z-score) [5]: 2.81
- glycan array binding signal (z-score) [6]: 3.57
- glycan array binding signal (z-score) [7]: 0.581
- glycan array binding signal (z-score) [8]: -0.426
- glycan array binding signal (z-score) [9]: 1.16
- glycan array binding signal (z-score) [10]: 0.116
- glycan array binding signal (z-score) [11]: -1.33
- glycan array binding signal (z-score) [12]: -0.567
- glycan array binding signal (z-score) [13]: -1.33
- glycan array binding signal (z-score) [14]: -0.123
- glycan array binding signal (z-score) [15]: -0.025
- glycan array binding signal (z-score) [16]: 0.088
- glycan array binding signal (z-score) [17]: -0.402
- glycan array binding signal (z-score) [18]: -0.566
- glycan array binding signal (z-score) [19]: -0.422
- glycan array binding signal (z-score) [20]: 0.123
- glycan array binding signal (z-score) [21]: 1.14
- glycan array binding signal (z-score) [22]: -0.21
- glycan array binding signal (z-score) [23]: 0.806
- glycan array binding signal (z-score) [24]: -0.524
- glycan array binding signal (z-score) [25]: 0.753
- glycan array binding signal (z-score) [26]: 0.097
- glycan array binding signal (z-score) [27]: -0.572
- glycan array binding signal (z-score) [28]: 0.234
- glycan array binding signal (z-score) [29]: -0.333
- glycan array binding signal (z-score) [30]: -0.269
- glycan array binding signal (z-score) [31]: 1.18
- glycan array binding signal (z-score) [32]: 0.162
- glycan array binding signal (z-score) [33]: -0.296
- glycan array binding signal (z-score) [34]: -0.168
- glycan array binding signal (z-score) [35]: 0.988
- glycan array binding signal (z-score) [36]: -0.608
- glycan array binding signal (z-score) [37]: 0.422
- glycan array binding signal (z-score) [38]: 0.873
- glycan array binding signal (z-score) [39]: -0.601
- glycan array binding signal (z-score) [40]: -0.021
- glycan array binding signal (z-score) [41]: -1.31
- glycan array binding signal (z-score) [42]: 0.259
- glycan array binding signal (z-score) [43]: -0.159
- glycan array binding signal (z-score) [44]: 0.556
- glycan array binding signal (z-score) [45]: 1.12
